These are yes or no findings as the source states them, for the method shown. Some results given as binding are weak or reduced against the parent protein; the word gives no strength. Where a sequence is shown, tags or fusion partners need not be part of it.
Target: KaiA1 (Slr0756), GAL4 fusions for yeast two-hybrid (Synechocystis sp. PCC 6803) (UniProt P74644)
Assay: two-hybrid

B1: KaiA1 (Slr0756), GAL4 fusions for yeast two-hybrid (protein, UniProt P74644 1-299)
chain: MQSPLSLCLFAPEHVAHRLRSIFQGDRHYLSTFQALDDFCAFLEDKPERIDCLLVYYEANSLPVLNRLYEQGRLLPIILLEPSPSALAKTTDEHPTIVYHNAEIHLPESQWSELPTVVDRAIAHYLHLGPICTLPNQTETIPAPIVDESSQSFLLLQQRRLADKLKERLGYLGVYYKRKPSHFYRNFSPQEKQEYLEDLSSQYREIILSYFSDEGTVNDLLDQFVNQAFFADLAISQILEIHMELMDEFSQHLKLEGRSEEVLLDYRLVLIDILAHLGEMYRRSIPREDIPFDVYYQTD
binding: binds
